In the supplement of paper PMC10849652:
This is one part of the list.

The chains behind the UniProt entries cited, without tags or fusion partners. Where a name states a change or a piece, a line headed by the entry shows the natural chain unless it says otherwise.
UniProt Q53S33: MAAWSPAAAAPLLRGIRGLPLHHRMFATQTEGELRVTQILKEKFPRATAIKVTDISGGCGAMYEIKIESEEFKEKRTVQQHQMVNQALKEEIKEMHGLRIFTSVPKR
UniProt Q7KYR7: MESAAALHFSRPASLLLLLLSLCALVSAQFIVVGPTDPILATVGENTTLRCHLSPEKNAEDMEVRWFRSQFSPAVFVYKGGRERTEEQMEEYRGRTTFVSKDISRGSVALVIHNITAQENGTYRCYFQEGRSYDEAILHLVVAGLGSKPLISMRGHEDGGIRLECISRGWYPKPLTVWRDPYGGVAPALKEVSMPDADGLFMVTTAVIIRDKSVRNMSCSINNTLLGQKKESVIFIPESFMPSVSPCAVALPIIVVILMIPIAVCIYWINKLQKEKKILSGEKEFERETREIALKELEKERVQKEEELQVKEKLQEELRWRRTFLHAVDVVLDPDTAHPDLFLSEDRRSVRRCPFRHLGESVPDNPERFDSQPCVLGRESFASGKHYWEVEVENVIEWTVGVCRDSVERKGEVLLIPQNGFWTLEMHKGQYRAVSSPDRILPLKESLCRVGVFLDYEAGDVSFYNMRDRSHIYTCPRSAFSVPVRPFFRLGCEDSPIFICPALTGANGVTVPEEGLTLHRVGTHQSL
UniProt O95816: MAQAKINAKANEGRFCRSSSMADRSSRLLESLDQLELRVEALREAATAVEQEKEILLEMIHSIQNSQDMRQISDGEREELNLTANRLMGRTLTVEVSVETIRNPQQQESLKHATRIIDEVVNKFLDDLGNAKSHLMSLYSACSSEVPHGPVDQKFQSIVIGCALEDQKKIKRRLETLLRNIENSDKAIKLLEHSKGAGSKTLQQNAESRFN
UniProt Q07817, whole entry, looked up: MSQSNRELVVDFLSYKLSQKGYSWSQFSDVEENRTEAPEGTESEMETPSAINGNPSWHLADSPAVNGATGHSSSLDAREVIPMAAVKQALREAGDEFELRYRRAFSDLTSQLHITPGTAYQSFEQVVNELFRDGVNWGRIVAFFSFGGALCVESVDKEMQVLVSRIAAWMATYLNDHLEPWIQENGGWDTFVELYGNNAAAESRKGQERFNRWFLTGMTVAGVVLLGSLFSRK
UniProt Q14692: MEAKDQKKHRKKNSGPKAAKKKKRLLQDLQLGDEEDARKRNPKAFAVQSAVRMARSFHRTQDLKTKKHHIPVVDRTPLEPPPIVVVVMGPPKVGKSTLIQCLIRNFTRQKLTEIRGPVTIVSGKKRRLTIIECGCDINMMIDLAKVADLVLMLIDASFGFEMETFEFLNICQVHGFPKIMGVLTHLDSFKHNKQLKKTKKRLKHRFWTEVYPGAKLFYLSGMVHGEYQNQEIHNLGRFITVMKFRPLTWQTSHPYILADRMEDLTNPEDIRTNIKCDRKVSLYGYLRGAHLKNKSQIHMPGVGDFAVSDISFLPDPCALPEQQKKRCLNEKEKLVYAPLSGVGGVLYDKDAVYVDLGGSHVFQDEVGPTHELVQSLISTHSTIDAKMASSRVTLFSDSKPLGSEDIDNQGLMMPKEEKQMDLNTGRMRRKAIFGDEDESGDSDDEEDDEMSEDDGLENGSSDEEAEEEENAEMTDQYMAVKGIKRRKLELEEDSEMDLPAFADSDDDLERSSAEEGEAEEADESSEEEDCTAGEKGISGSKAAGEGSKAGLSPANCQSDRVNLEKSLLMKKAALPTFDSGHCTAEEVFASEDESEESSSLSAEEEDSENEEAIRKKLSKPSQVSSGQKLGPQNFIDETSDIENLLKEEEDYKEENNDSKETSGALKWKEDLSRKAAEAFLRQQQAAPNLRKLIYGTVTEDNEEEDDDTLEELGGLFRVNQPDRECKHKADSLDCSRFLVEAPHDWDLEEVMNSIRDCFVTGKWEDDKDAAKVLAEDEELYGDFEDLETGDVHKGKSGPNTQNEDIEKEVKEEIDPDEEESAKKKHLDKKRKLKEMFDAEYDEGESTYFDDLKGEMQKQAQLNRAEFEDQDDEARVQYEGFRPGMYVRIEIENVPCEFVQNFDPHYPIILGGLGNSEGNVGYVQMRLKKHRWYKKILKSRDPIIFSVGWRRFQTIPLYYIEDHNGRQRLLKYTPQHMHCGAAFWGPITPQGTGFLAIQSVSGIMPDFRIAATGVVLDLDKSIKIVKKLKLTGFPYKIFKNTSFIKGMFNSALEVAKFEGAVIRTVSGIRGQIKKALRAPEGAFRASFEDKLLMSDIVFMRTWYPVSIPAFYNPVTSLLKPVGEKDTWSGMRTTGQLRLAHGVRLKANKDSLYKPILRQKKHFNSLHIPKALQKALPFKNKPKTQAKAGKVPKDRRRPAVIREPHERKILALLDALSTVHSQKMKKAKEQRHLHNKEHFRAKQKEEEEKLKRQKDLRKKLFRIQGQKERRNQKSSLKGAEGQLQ
UniProt Q9NWV8, whole entry, looked up: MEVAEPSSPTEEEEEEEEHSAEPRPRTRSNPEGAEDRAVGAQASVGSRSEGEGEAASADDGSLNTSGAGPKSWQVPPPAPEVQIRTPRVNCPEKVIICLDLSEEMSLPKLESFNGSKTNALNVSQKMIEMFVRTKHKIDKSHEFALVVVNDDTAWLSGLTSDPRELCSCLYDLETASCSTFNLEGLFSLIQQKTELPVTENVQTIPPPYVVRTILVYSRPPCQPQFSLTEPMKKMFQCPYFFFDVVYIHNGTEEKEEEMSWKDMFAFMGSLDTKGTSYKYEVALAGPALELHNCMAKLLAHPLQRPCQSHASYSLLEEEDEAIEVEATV
UniProt P54687: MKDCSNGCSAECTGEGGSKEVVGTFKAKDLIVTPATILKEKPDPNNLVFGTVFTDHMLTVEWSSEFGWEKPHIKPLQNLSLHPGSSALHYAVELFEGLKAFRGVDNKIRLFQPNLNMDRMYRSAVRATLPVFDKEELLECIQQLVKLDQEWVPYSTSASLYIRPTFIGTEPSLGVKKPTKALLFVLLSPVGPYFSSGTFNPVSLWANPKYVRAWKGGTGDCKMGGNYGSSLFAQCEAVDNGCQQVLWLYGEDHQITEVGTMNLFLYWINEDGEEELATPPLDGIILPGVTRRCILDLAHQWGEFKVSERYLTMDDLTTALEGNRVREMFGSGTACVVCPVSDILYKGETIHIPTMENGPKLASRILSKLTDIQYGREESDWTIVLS
UniProt O14981: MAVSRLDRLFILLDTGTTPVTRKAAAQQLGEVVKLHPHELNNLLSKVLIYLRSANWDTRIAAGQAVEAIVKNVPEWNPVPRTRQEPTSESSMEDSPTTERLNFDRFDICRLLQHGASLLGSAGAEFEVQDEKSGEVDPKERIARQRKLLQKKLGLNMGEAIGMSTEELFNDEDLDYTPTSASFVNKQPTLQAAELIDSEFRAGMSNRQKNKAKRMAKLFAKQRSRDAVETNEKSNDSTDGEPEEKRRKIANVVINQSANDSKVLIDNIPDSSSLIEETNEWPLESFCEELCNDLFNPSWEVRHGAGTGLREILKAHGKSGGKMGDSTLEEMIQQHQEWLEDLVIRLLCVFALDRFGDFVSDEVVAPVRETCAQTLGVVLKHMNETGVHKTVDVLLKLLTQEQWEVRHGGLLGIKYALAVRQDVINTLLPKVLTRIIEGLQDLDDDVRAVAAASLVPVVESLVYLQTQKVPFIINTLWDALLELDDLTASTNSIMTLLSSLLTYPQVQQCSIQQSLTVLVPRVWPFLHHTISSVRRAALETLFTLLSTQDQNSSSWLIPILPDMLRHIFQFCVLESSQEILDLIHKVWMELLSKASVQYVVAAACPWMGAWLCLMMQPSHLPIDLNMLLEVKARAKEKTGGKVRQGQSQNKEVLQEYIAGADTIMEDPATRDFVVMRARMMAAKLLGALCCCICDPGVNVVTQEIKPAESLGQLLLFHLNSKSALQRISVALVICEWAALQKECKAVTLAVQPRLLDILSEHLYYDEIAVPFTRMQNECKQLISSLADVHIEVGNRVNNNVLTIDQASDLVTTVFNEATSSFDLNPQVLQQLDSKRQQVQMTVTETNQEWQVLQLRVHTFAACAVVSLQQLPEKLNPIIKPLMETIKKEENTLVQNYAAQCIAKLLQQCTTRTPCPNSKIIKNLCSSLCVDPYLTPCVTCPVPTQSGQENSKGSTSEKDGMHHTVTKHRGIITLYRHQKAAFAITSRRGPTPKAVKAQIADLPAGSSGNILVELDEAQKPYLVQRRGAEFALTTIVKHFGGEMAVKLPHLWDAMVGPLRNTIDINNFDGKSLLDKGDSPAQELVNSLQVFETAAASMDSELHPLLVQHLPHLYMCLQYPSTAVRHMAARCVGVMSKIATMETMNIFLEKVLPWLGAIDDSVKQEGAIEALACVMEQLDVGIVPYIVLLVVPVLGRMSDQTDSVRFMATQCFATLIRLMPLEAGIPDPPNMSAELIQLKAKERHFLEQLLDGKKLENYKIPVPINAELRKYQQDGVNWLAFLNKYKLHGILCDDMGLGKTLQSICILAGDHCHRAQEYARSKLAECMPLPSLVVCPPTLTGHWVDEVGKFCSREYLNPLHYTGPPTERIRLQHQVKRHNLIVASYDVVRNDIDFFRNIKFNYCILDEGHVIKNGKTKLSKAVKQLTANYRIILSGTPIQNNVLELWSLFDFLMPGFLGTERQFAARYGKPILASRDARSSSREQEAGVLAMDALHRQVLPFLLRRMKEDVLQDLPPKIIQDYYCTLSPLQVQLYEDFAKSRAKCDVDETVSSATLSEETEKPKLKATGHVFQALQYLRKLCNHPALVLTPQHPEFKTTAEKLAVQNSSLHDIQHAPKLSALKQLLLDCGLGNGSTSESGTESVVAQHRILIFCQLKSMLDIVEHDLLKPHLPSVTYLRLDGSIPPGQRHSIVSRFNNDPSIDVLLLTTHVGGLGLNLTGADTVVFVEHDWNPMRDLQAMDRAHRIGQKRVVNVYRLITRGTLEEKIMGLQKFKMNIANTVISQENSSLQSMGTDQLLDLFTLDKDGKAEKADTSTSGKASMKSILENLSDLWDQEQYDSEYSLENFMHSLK
UniProt O15392, whole entry, looked up: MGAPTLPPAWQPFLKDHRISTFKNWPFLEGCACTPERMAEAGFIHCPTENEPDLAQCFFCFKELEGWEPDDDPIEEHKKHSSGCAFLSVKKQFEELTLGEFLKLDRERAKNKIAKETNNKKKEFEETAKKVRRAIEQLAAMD
UniProt P07738: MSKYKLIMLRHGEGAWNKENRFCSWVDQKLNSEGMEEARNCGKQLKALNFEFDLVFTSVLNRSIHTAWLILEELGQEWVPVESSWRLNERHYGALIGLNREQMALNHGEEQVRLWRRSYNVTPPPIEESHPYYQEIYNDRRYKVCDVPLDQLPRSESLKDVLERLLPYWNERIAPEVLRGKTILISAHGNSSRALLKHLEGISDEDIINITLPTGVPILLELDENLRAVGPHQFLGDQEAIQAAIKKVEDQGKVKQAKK
UniProt Q9NYM9: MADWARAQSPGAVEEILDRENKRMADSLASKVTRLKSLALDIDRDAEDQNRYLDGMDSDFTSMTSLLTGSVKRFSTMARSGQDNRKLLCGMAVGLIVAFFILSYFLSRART
UniProt Q9Y276: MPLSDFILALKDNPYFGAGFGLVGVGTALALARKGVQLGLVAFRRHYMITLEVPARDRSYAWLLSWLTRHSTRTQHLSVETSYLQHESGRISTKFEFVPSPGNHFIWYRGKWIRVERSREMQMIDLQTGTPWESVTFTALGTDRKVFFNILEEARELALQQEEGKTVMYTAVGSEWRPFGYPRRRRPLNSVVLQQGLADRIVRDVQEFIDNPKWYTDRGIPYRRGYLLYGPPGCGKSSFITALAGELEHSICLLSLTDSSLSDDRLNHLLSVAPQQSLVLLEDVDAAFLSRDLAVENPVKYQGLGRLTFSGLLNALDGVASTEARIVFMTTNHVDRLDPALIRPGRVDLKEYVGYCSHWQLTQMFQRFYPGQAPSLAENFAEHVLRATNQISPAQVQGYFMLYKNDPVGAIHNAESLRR

Columns and labels:
Experiment in all cases: log2 fold change, soluble protein after heating vs DMSO (PISA); higher = thermal stabilisation; K562 lysate, 10 uM; active = over 0.2 and 3.5 SD of the protein, either way, in both replicates (recomputed)
lapatinib = compound: CS(=O)(=O)CCNCc1ccc(-c2ccc3ncnc(Nc4ccc(OCc5cccc(F)c5)c(Cl)c4)c3c2)o1 [lapatinib]
Summary of the method: (§1)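 Dounce homogenisation of K562 pellets in PBS pH 7.4 with 1 mM MgCl2 produced a crude extract, used at 1 mg/mL protein. Exposure to 10 μM compound lasted 30 min, and aliquots were then heated for 3 min across 48°C-58°C, pooled and brought to 0.5% NP-40 at 4°C. The supernatant after 21,000xg for 90 min was quantified by TMTpro 16plex LC-MS/MS with channel sums equalised. Duplicate values are given as log-two fold change in thermal stability relative to solvent controls.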

pictilisib = compound: CS(=O)(=O)N1CCN(Cc2cc3nc(-c4cccc5[nH]ncc45)nc(N4CCOCC4)c3s2)CC1 [pictilisib]
Summary of the method: as §1

crizotinib = compound: C[C@@H](Oc1cc(-c2cnn(C3CCNCC3)c2)cnc1N)c1c(Cl)ccc(F)c1Cl [crizotinib]
Summary of the method: as §1

[1] = compound: C[C@H](C1=CC=C(C=C1)C(=O)NC2=C3C=CNC3=NC=C2)N
Summary of the method: as §1

duvelisib = compound: C[C@H](Nc1ncnc2nc[nH]c12)c1cc2cccc(Cl)c2c(=O)n1-c1ccccc1 [duvelisib]
Summary of the method: as §1

gandotinib = compound: Cc1cc(Nc2cc(CN3CCOCC3)c3nc(C)c(Cc4ccc(Cl)cc4F)n3n2)n[nH]1 [gandotinib]
Summary of the method: as §1

tozasertib = compound: Cc1cc(Nc2cc(N3CCN(C)CC3)nc(Sc3ccc(NC(=O)C4CC4)cc3)n2)n[nH]1 [tozasertib]
Summary of the method: as §1

doramapimod = compound: Cc1ccc(-n2nc(C(C)(C)C)cc2NC(=O)Nc2ccc(OCCN3CCOCC3)c3ccccc23)cc1 [doramapimod]
Summary of the method: as §1

bafetinib = compound: Cc1ccc(NC(=O)c2ccc(CN3CC[C@H](N(C)C)C3)c(C(F)(F)F)c2)cc1Nc1nccc(-c2cncnc2)n1 [bafetinib]
Summary of the method: as §1

[2] = compound: Cc1cccc(CC(=O)N2CCc3c2ccc(-c2cn(C)c4ncnc(N)c24)c3F)n1
Summary of the method: as §1

nilotinib = compound: Cc1cn(-c2cc(NC(=O)c3ccc(C)c(Nc4nccc(-c5cccnc5)n4)c3)cc(C(F)(F)F)c2)cn1 [nilotinib]
Summary of the method: as §1

[3] = compound: Cc1nc(Nc2n[nH]c3c2CN(C(=O)N[C@H](CN(C)C)c2ccccc2)C3(C)C)c2sccc2n1
Summary of the method: as §1

dasatinib = compound: Cc1nc(Nc2ncc(C(=O)Nc3c(C)cccc3Cl)s2)cc(N2CCN(CCO)CC2)n1 [dasatinib]
Summary of the method: as §1

[4] = compound: Cc1ncc(-c2ccnc(Nc3ccc(S(C)(=O)=O)cc3)n2)n1C(C)C
Summary of the method: as §1

[5] = compound: Cn1cc(-c2ccc3c(c2)CCN3C(=O)Cc2cccc(C(F)(F)F)c2)c2c(N)ncnc21
Summary of the method: as §1

quisinostat = compound: Cn1cc(CNCC2CCN(c3ncc(C(=O)NO)cn3)CC2)c2ccccc21 [quisinostat]
Summary of the method: as §1

tipifarnib = compound: Cn1cncc1[C@@](N)(c1ccc(Cl)cc1)c1ccc2c(c1)c(-c1cccc(Cl)c1)cc(=O)n2C [tipifarnib]
Summary of the method: as §1

[6] = compound: NC(=O)Nc1cc(-c2cccc(F)c2)sc1C(=O)N[C@H]1CCCNC1
Summary of the method: as §1

[7] = compound: NC(=O)c1cnc(N[C@@H]2CCCC[C@@H]2N)nc1Nc1cccc(-n2nccn2)c1
Summary of the method: as §1

[8] = compound: NC1(c2ccc(-c3nc4ccn5c(=O)[nH]nc5c4cc3-c3ccccc3)cc2)CCC1
Summary of the method: as §1

Measured: log2 fold change

BOLA3 (UniProt Q53S33)
inactive: lapatinib -0.004 | pictilisib 0.005 | crizotinib 0.057 | [1] -0.156 | duvelisib 0 | gandotinib 0.041 | tozasertib 0.052 | doramapimod -0.023 | bafetinib -0.005 | [2] -0.001 | nilotinib 0.031 | [3] 0.056 | dasatinib 0.021 | [4] 0.007 | [5] 0.015 | quisinostat 0.085 | tipifarnib -0.017 | [6] 0.019 | [7] -0.028 | [8] 0.032

BTN2A1 (UniProt Q7KYR7)
inactive: lapatinib 0.018 | pictilisib 0.018 | crizotinib 0.018 | [1] -0.087 | duvelisib -0.05 | gandotinib 0.02 | tozasertib 0.067 | doramapimod -0.009 | bafetinib -0.04 | [2] 0.026 | nilotinib -0.084 | [3] -0.04 | dasatinib 0.021 | [4] 0.175 | [5] 0.051 | quisinostat -0.032 | tipifarnib -0.08 | [6] 0.015 | [7] 0.053 | [8] 0.015

BAG2 (UniProt O95816)
inactive: lapatinib 0.003 | pictilisib 0.017 | crizotinib 0.029 | [1] 0.067 | duvelisib 0.035 | gandotinib -0.022 | tozasertib 0 | doramapimod 0 | bafetinib -0.017 | [2] -0.008 | nilotinib 0.006 | [3] 0.005 | dasatinib 0.037 | [4] 0.022 | [5] 0.052 | quisinostat -0.021 | tipifarnib 0.013 | [6] -0.011 | [7] -0.001 | [8] 0.028

BCL2L1 (UniProt Q07817)
inactive: lapatinib -0.034 | pictilisib -0.021 | crizotinib 0.047 | [1] -0.072 | duvelisib -0.005 | gandotinib 0.06 | tozasertib 0.003 | doramapimod 0.038 | bafetinib -0.02 | [2] 0.038 | nilotinib 0.013 | [3] 0.017 | dasatinib -0.003 | [4] 0.028 | [5] 0.01 | quisinostat 0.028 | tipifarnib 0.006 | [6] -0.053 | [7] 0.022 | [8] 0.023

Two entries drawn at random from those above:
BCL2L1 (UniProt Q07817)
inactive: lapatinib -0.034 | pictilisib -0.021 | crizotinib 0.047 | [1] -0.072 | duvelisib -0.005 | gandotinib 0.06 | tozasertib 0.003 | doramapimod 0.038 | bafetinib -0.02 | [2] 0.038 | nilotinib 0.013 | [3] 0.017 | dasatinib -0.003 | [4] 0.028 | [5] 0.01 | quisinostat 0.028 | tipifarnib 0.006 | [6] -0.053 | [7] 0.022 | [8] 0.023

BAG2 (UniProt O95816)
inactive: lapatinib 0.003 | pictilisib 0.017 | crizotinib 0.029 | [1] 0.067 | duvelisib 0.035 | gandotinib -0.022 | tozasertib 0 | doramapimod 0 | bafetinib -0.017 | [2] -0.008 | nilotinib 0.006 | [3] 0.005 | dasatinib 0.037 | [4] 0.022 | [5] 0.052 | quisinostat -0.021 | tipifarnib 0.013 | [6] -0.011 | [7] -0.001 | [8] 0.028

(list continues)

BMS1 (UniProt Q14692)
inactive: lapatinib -0.029 | pictilisib -0.052 | crizotinib -0.058 | [1] -0.018 | duvelisib -0.036 | gandotinib 0.043 | tozasertib 0.018 | doramapimod 0.047 | bafetinib -0.032 | [2] 0.045 | nilotinib 0.024 | [3] 0.024 | dasatinib -0.02 | [4] -0.045 | [5] -0.01 | quisinostat -0.097 | tipifarnib 0 | [6] 0.006 | [7] 0.015 | [8] -0.019

BABAM1 (UniProt Q9NWV8)
inactive: lapatinib -0.009 | pictilisib -0.005 | crizotinib 0.001 | [1] -0.08 | duvelisib -0.035 | gandotinib 0.026 | tozasertib -0.003 | doramapimod 0.005 | bafetinib 0.083 | [2] 0.028 | nilotinib 0.023 | [3] -0.034 | dasatinib 0.004 | [4] 0.005 | [5] 0.035 | quisinostat 0.001 | tipifarnib 0.044 | [6] 0.006 | [7] 0.003 | [8] 0.024

BCAT1 (UniProt P54687)
inactive: lapatinib -0.011 | pictilisib -0.005 | crizotinib 0.002 | [1] -0.077 | duvelisib 0.029 | gandotinib 0.052 | tozasertib -0.015 | doramapimod 0.004 | bafetinib 0.088 | [2] 0.007 | nilotinib 0.029 | [3] -0.013 | dasatinib 0.005 | [4] -0.008 | [5] -0.033 | quisinostat -0.001 | tipifarnib 0.003 | [6] -0.005 | [7] -0.015 | [8] 0.003

BCKDK (UniProt O14874)
inactive: lapatinib -0.056 | pictilisib -0.028 | crizotinib 0.096 | [1] -0.038 | duvelisib -0.008 | gandotinib -0.095 | tozasertib -0.039 | doramapimod -0.033 | bafetinib 0.012 | [2] -0.003 | nilotinib 0.008 | [3] 0.001 | dasatinib 0.023 | [4] -0.061 | [5] 0.058 | quisinostat 0.094 | tipifarnib -0.058 | [6] -0.092 | [7] -0.029 | [8] 0.052

BTAF1 (UniProt O14981)
inactive: lapatinib 0.015 | pictilisib -0.043 | crizotinib -0.041 | [1] -0.137 | duvelisib 0.011 | gandotinib -0.004 | tozasertib 0 | doramapimod 0.046 | bafetinib -0.056 | [2] 0.093 | nilotinib -0.005 | [3] 0.018 | dasatinib -0.028 | [4] 0.007 | [5] 0.008 | quisinostat -0.015 | tipifarnib -0.011 | [6] 0.033 | [7] 0.016 | [8] 0.004

BIRC5 (UniProt O15392)
inactive: lapatinib -0.026 | pictilisib 0.242 | crizotinib 0.047 | [1] -0.007 | duvelisib 0.106 | gandotinib 0.012 | tozasertib 0.151 | doramapimod -0.065 | bafetinib -0.226 | [2] -0.01 | nilotinib -0.035 | [3] 0.058 | dasatinib -0.048 | [4] 0.065 | [5] -0.049 | quisinostat 0.073 | tipifarnib -0.015 | [6] -0.041 | [7] -0.013 | [8] 0

BPGM (UniProt P07738)
inactive: lapatinib 0.016 | pictilisib -0.012 | crizotinib 0.002 | [1] 0.038 | duvelisib -0.037 | gandotinib -0.015 | tozasertib 0.087 | doramapimod 0.006 | bafetinib 0.034 | [2] -0.096 | nilotinib 0.024 | [3] -0.003 | dasatinib 0.066 | [4] 0.048 | [5] -0.079 | quisinostat -0.006 | tipifarnib 0.002 | [6] -0.042 | [7] 0.037 | [8] -0.025

BET1L (UniProt Q9NYM9)
inactive: lapatinib 0.15 | pictilisib -0.112 | crizotinib 0.058 | [1] 0.044 | duvelisib 0.012 | gandotinib -0.045 | tozasertib -0.054 | doramapimod -0.134 | bafetinib -0.174 | [2] -0.067 | nilotinib 0.056 | [3] -0.055 | dasatinib 0.023 | [4] -0.012 | [5] 0.028 | quisinostat 0.146 | tipifarnib 0.137 | [6] -0.073 | [7] -0.006 | [8] 0.026

BCL7C isoform 2 (UniProt Q8WUZ0)
inactive: lapatinib -0.06 | pictilisib 0.017 | crizotinib 0.104 | [1] -0.208 | duvelisib -0.03 | gandotinib 0.081 | tozasertib 0.02 | doramapimod -0.024 | bafetinib -0.209 | [2] 0.075 | nilotinib 0 | [3] -0.119 | dasatinib -0.01 | [4] -0.091 | [5] 0.076 | quisinostat 0.083 | tipifarnib 0.008 | [6] 0.017 | [7] -0.012 | [8] 0.059

BCS1L (UniProt Q9Y276)
inactive: lapatinib -0.022 | pictilisib -0.056 | crizotinib -0.117 | [1] 0.136 | duvelisib -0.116 | gandotinib -0.156 | tozasertib 0.018 | doramapimod -0.01 | bafetinib 0.013 | [2] 0.028 | nilotinib -0.017 | [3] -0.002 | dasatinib -0.05 | [4] 0.051 | [5] 0.053 | quisinostat 0.013 | tipifarnib -0.019 | [6] 0.019 | [7] 0.03 | [8] 0.027

BPTF (UniProt Q12830)
inactive: lapatinib 0.017 | pictilisib 0.027 | crizotinib -0.028 | [1] -0.049 | duvelisib -0.004 | gandotinib -0.015 | tozasertib 0.064 | doramapimod -0.003 | bafetinib -0.004 | [2] 0.064 | nilotinib -0.039 | [3] -0.011 | dasatinib -0.018 | [4] -0.059 | [5] 0.004 | quisinostat -0.018 | tipifarnib -0.012 | [6] 0.03 | [7] 0.016 | [8] -0.002
